In PubChem BioAssay AID2685 (National Center for Advancing Translational Sciences (NCATS), 2010):
About 2,100 (0.66%) of roughly 320,000 compounds were called active. The inconclusive results got no clear call from the source; some entries with a clear call stand among them for comparison. The call rests on the fitted dose curve; in most records, active means well fitted inhibition curve with a large enough effect in the signal ratio, with a control signal flat (not every such curve was filed as active); inconclusive means small, poorly fitted or top-dose-only effect, or effect the other way, or a change in a side signal; inactive means flat fitted curve, though single readings scatter; the % refers to the signal ratio. Potencies beside an inconclusive call are fits to weak or partial responses and may not hold up.

assay: qHTS Assay for Lipid Storage Modulators in Drosophila S3 Cells; conditions: BODIPY lipid droplet fluorescence, 18-24 h, cells fed with added oleic acid; lipid storage change, negative = inhibition: at 46.1 µM (top of the series) unless noted
Procedure, shortened: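 Drosophila S3 cells got compounds at several concentrations plus oleic acid (400 uM solution). Laser-scanning cytometry with 488 nm excitation read lipid droplets at 500-530 nm and cells at 575-640 nm. Percent activity was relative to 20 uM Triacsin C.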
On the % scale 0 is the no-effect control and ±100 the full control effect; potency means the concentration at half of the fitted maximal effect.

Compound | Potency | lipid storage change, negative = inhibition
COc1ccc(C2=NOC(COc3ccc4c(C)cc(=O)oc4c3)C2)c(OC)c1 (stereo unspecified) | inconclusive: 0.206 µM [activator, full curve, poor fit] | –
CC(CCc1ccccc1)NC(=O)CN1C(=O)NC2(CCCCC2)C1=O (stereo unspecified) | – | inconclusive: -8.63%
CC1CCN(CCOc2ccccc2-c2ccccc2)CC1 | – | inconclusive: -34.1%
COC(=O)CSc1ccc2c(N)c(C(=O)OC)sc2c1 | – | inconclusive: 17.2%
Cn1c(=O)[nH]c(=O)c2c1nc(N1CCOCC1)n2CCSc1nnnn1-c1ccccc1 | – | inconclusive: 18.1%
Cc1cc(C)c2nc(NC(=O)c3cc(C)on3)sc2c1 | – | inconclusive: 54.3%
CCOC(=O)c1c(C)[nH]c(C)c1S(=O)(=O)NC(CC)CN1CCOCC1 (stereo unspecified) | – | inconclusive: -4.2%
COc1cn(-c2ccccc2)nc1C(=O)Nc1ccccc1 | active: 0.92 µM | –
CC(C)Cc1ccc(CN2CCCC(NC(=O)c3ccnn3C)C2)cc1 (stereo unspecified) | inconclusive: 29.1 µM [falling, single point] | –
COc1cccc(NC(=O)N(Cc2cc3cc(C)cc(C)c3[nH]c2=O)CC2COCCO2)c1 (stereo unspecified) | – | inconclusive: 58.4%
CSc1ccccc1OCc1cc(C(=O)NCCN2CCCc3ccccc32)no1 | – | inactive
Cc1ccc2cccc(Oc3ncnc4sc(C)c(C)c34)c2n1 | – | inconclusive: 2.68%
COc1ccc(/C=C/C(=O)O)cc1S(=O)(=O)N1CCCC1 | – | inconclusive: -35.6%
N=c1c(S(=O)(=O)c2ccc(Cl)cc2)cc2c(=O)n3ccccc3nc2n1C1CCCC1 | active: 13 µM | –
Cc1ccc(-c2cc(-c3cccs3)[nH]n2)c(O)c1 | – | inconclusive: -13.9%
Cc1c(C(=O)OCC(C)C)[nH]c2c1C(=O)CC(c1cccs1)C2 (stereo unspecified) | – | inconclusive: 145%
CC1=C(C(=O)Nc2cccc(C(=O)NC3CCCC(C)C3C)c2)SCCO1 (stereo unspecified) | inconclusive: 0.58 µM [activator, single point] | –
CC(=O)Nc1nc2c(ccc3ccccc32)s1 | – | inconclusive: -24%
COc1cc(/C=C2/NC(=O)N(Cc3ccccc3F)C2=O)ccc1Oc1ccc([N+](=O)[O-])cn1 | inconclusive: 14.6 µM [rising, partial curve] | –
O=C(O)c1cccc(CN2C(=O)c3ccccc3C2=O)c1 | inconclusive: 0.103 µM [activator, full curve, poor fit] | –
O=C(c1cc2n(n1)C(C(F)(F)F)CC(c1ccco1)N2)N1CCN(c2ccccn2)CC1 (stereo unspecified) | – | inconclusive: 16.6%
Fc1ccccc1CN1CCCC(NC2CCC2)C1 (stereo unspecified) | – | inconclusive: 19.2%
COc1cc(Nc2c3c(nc4ccccc24)CCCC3)cc(OC)c1OC | – | inconclusive: -19.2%
NC(N)=NN=C1CCCCCCCCCCC1 | inconclusive: 29.1 µM [falling, single point] | –
Cc1c(C(=O)N2CCCC2)c(S(=O)(=O)NCCc2ccccc2)c(C)n1C | inconclusive: 29.1 µM [activator, single point] | –
CCC(C)N(C(=O)CSc1nnc(COc2ccccc2F)n1N)C1CCS(=O)(=O)C1 (stereo unspecified) | – | inconclusive

Compound | Potency | lipid storage change, negative = inhibition
Cc1ccc2c(c1)c(=O)c(Br)c(C)n2Cc1ccccc1 | inconclusive: 20.6 µM [falling, partial curve] | –
Cc1cccc(OCC(=O)Nc2cccc(C(=O)Nc3ccccc3C(=O)O)c2)c1 | – | inconclusive: -8.21%
Cc1cccc(C)c1NC(=S)Nc1c(C)n(C)n(-c2ccccc2)c1=O | inconclusive: 0.92 µM [falling, full curve, poor fit] | –
Cc1ccc(C2=NOC(C)(c3nnc(-c4ccc(F)cc4)o3)C2)cc1 (stereo unspecified) | – | inconclusive: 11.8%
CCc1cccc(NC(=O)COC(=O)C2CCN(c3ccc(C(F)(F)F)cn3)CC2)c1 | inconclusive: 6.51 µM [activator, single point] | –
Nc1nccc(/C=C/c2c(F)cccc2Cl)n1 | – | inconclusive: -3.29%
Cc1cccc(OCCCCCN2CCOCC2)c1C | inconclusive: 29.1 µM [activator, single point] | –
O=C(NNC(=O)c1cc(Br)c(Br)s1)c1csc(N2CCOCC2)n1 | – | inconclusive: 18%
CN(C)c1ccc(/C=N/N2C(=S)SC(C)(C)C2N(O)C(=O)Nc2ccc([N+](=O)[O-])cc2)cc1 (stereo unspecified) | – | inconclusive: 16.1%
O=C(NN1CC(C(=O)OCc2ccc(Br)cc2)CC1=O)c1ccccc1 (stereo unspecified) | inconclusive: 2.06 µM [activator, partial curve] | –
COc1cc(NC(=O)CCCN2C(=O)NC(C)(C)C2=O)cc(OC)c1 | – | inconclusive: 20.6%
CCOc1c(CNc2nnnn2C)cccc1OC | – | inactive
O=C(CNC(=O)C(c1ccccc1)c1ccccc1)N/N=C\c1cccc(O)c1 | – | inconclusive: 7.68%
COc1ccc(-c2csc(-c3cccs3)n2)cc1OC | – | inconclusive: 15.8%
CCc1c(C)nc2ncnn2c1N1CCC(C(=O)Nc2cccc(C(C)=O)c2)CC1 | – | inconclusive: 26.5%
C=CC[C@H]1Cc2c(cccc2[N+](=O)[O-])[C@H](CC=C)N1 | inconclusive: 18.4 µM [falling, single point] | –
C=C(C)CSc1nc2c(cc1C#N)CCC2 | – | inconclusive: 29.7%
O=C(c1cccs1)N1CCN(c2ccc([N+](=O)[O-])cc2F)CC1 | inconclusive: 0.0041 µM [rising, full curve, poor fit] | –
COc1ccc(CCNC(=O)/C(C#N)=C/c2ccc(OCC(=O)NCC3CCCO3)cc2)cc1OC (stereo unspecified) | inconclusive: 29.1 µM [falling, single point] | –
Clc1ccc(CON/C=N/c2ncnc3sccc23)c(Cl)c1 | – | inconclusive: -10.7%
O=C(Nc1ccc2c(c1)OCO2)c1cc2n(n1)C(C(F)(F)F)CC(c1ccccc1)N2 (stereo unspecified) | – | inconclusive: 58.4%
O=C(OCCCN1CCOCC1)c1ccc(O)c(O)c1 | inconclusive: 1.03 µM [falling, full curve] | –
COc1ccc(-n2cnc3sc4c(c3c2=O)CCCC4)cc1 | – | inconclusive: -13.6% [at 9.22 µM]
COC(=O)CCC/C=C1/SCC(NC(=O)c2ccccc2)C1=O (stereo unspecified) | – | inconclusive: 7.15%
CCCNC(=O)COC(=O)c1ccc(-c2ccccc2)cc1 | – | inconclusive: -30.8%
Cn1c(=O)c2c(nc(NCc3ccc4c(c3)OCO4)n2Cc2ccc(F)cc2)n(C)c1=O | – | inconclusive: -51%

Compound | Potency | lipid storage change, negative = inhibition
O=[N+]([O-])c1ccc(/C=N/n2cnc3ccccc32)s1 | inconclusive: 16.4 µM [falling, single point] | –
O=C(CCC(=O)c1ccccc1)NC1CCCN(Cc2ccccc2F)C1 (stereo unspecified) | inconclusive: 29.1 µM [activator, single point] | –
CC(C)Cc1nnc(NC(=O)CCC(=O)N2CCN(Cc3ccc(F)cc3)CC2)s1 | – | inconclusive: -12.4%
Cn1nc(C(F)(F)F)c(C(=O)Nc2ccc(Cl)cc2)c1Cl | – | inconclusive: 21.9%
COc1cc(OC)cc(-c2c(-c3cccs3)c3cc(-c4ccc5[nH]ccc5c4)ccc3n2C)c1 | inconclusive: 0.0065 µM [activator, full curve, poor fit] | –
CC(=O)c1ccc([C@@H]2C[C@]34CN(Cc5cccc(C(F)(F)F)c5)S(=O)(=O)[C@H]3C[C@H]2O4)cc1 | – | inconclusive: 9.21%
CC(=NCCN1CCN(C(C)=C2C(=O)c3ccccc3C2=O)CC1)C1=C(O)CC(C)(C)CC1=O | inconclusive: 29.1 µM [rising, single point] | –
CC(C)OCCCn1c(SC(C)C(=O)NCC2CCCO2)nc2cc(Cl)ccc2c1=O (stereo unspecified) | – | inconclusive: -82.7%
C/C(=N\NC(=S)NC1CCCCC1)c1ccc(Cl)c(Cl)c1 | inconclusive: 2.59 µM [activator, partial curve, poor fit] | –
Cc1ccc(S(=O)(=O)N2CCN(C(=O)c3c(-c4ccccc4)noc3C)CC2)cc1C | inconclusive: 2.31 µM [activator, partial curve] | –
COc1cc(C(=O)NNC(=O)C2CCC2)cc(OC)c1OC | inconclusive: 18.4 µM [activator, single point] | –
CC1CCC(NC(=O)CN2C(=O)C3CCCN3c3ncc(Cl)cc32)CC1 (stereo unspecified) | – | inconclusive: 117%
Cc1cc(C)cc(NC(=O)N2CCC(C(=O)c3ccc(F)cc3)CC2)c1 | – | inconclusive: 0.779%
CC(NC(=O)COc1ccc(S(=O)(=O)N2CCCC2)cc1)c1ccccc1 (stereo unspecified) | inconclusive: 0.0651 µM [falling, full curve, poor fit] | –
CCNC(=S)Nc1ccc2cn[nH]c2c1 | – | inconclusive: 62.6%
O=C1CN(C(=O)COC(=O)CCCOc2ccccc2)c2ccccc2N1 | – | inconclusive: 34.1%
CC1Oc2ccccc2N(CC(=O)NCC2CCCO2)C1=O (stereo unspecified) | – | inconclusive: -7.87%
COc1ccc(N2CCN(C(=S)Nc3cc(C)ccc3C)CC2)cc1 | – | inconclusive: 32.3%
CCOc1ccc(NC(=O)C2C(c3ccccc3)C2(Cl)Cl)cc1 (stereo unspecified) | active: 16.4 µM | –
NS(=O)(=O)c1ccc(CCNC(=O)c2cc(-c3ccc(Br)cc3)nc3ccccc23)cc1 | – | inconclusive: -86.6%
CN1C(=O)/C(=C\c2cccc(OCc3ccccc3)c2)SC1=S | – | inconclusive: -179%
C=CCNC(=O)CSc1nc2sc(C)c(C)c2c(=O)[nH]1 | – | inconclusive: 32%
CCc1noc(C)c1C(=O)Nc1ccc(S(=O)(=O)N2CCCC(C)C2)cc1 (stereo unspecified) | inconclusive: 16.4 µM [falling, single point] | –
COc1cc(C(=O)Oc2c(CN3CCOCC3)cc(Cl)c3cccnc23)cc(OC)c1OC | – | inconclusive: -3.46%

Of the compounds above, three have a COOH group:
Compound | Potency | lipid storage change, negative = inhibition
COc1ccc(/C=C/C(=O)O)cc1S(=O)(=O)N1CCCC1 | – | inconclusive: -35.6%
O=C(O)c1cccc(CN2C(=O)c3ccccc3C2=O)c1 | inconclusive: 0.103 µM [activator, full curve, poor fit] | –
Cc1cccc(OCC(=O)Nc2cccc(C(=O)Nc3ccccc3C(=O)O)c2)c1 | – | inconclusive: -8.21%
